These results are taken from patent publication US20100056522A1, “INTRAOCULAR PRESSURE-LOWERING AGENT COMPRISING COMPOUND HAVING HISTONE DEACETYLASE INHIBITOR EFFECT AS ACTIVE INGREDIENT” (Santen Pharmaceutical Co., Ltd., priority 2007, published 2010).

This test has as its system HDAC (HeLa nuclear extract). As to the kind of experiment: Test for evaluation of an HDAC inhibitory effect (HDAC Fluorimetric Assay/Drug Discovery Kit, Biomol). It is filed as biochemical. The note with it: final concentration of test compound 30 μM, rates of more than 100% are shown as 100%. As for the experimental part:
Using HDAC Fluorimetric Assay/Drug Discovery Kit (manufactured by Biomol), an HDAC inhibitory effect of the present compounds was measured according to the protocol included with the kit. The kit contains Buffer, HeLa nuclear extract (includes an HDAC), Substrate, Developer and Trichostatin A (an HDAC inhibitor).
A test compound was dissolved in dimethyl sulfoxide, whereby a 2 mg/mL solution was prepared. Then, the resulting solution was diluted with Buffer containing 5% dimethyl sulfoxide, whereby a 150 μM test compound solution was prepared.
1) To a 384-well culture plate, the test compound solution was added in an amount of 2 μL per well.
2) HeLa nuclear extract was diluted 30-fold with Buffer. The resulting solution was added in an amount of 3 μL per well and then, incubation was performed at 37° C. for 2 hours.
3) Substrate was diluted 500-fold with Buffer. […]
5) The fluorescence intensity of each well was measured using multilabel counter ARVO (manufactured by Wallac) with excitation at 360 nm and emission at 460 nm. […]
Enzyme inhibitory rate (%) was calculated using the following equation.
(Enzyme Inhibitory Rate(%))=100×[1−{(Fluorescence Intensity of Test Compound Solution)−(Florescence Intensity of Blank)}/{(Florescence Intensity of Control)−(Florescence Intensity of Blank)}]

On to `O=C(CCCCCCC(=O)Nc1ccccc1)NO` [SAHA, N-Hydroxy-N′-phenyloctanediamide, reference compound], for which the “Enzyme Inhibitory Rate (%)” value was determined as 97%.
